Results are given in words; binding and its absence hold for the method and conditions named. In cells and extracts the contact can be indirect. Some entries that bind do so weakly or less than the wild type.
Biological target: β-catenin (human (endogenous in A549, NCI-H1299, NCI-H460)) (UniProt P35222)
Assay: co-IP; anti-β-catenin antibody and protein-G sepharose on whole cell lysates of A549, NCI-H1299 and NCI-H460 cells, with or without 10 μM OP-B treatment; lysis buffer 1% Triton X-100, 150 mM NaCl, 50 mM HEPES pH 7.6; overnight at 4 °C; beads washed 4 times with RIPA buffer; Axin detected by western blot

Sequences of proteins named here, by UniProt entry; tags and fusion partners are left off.
UniProt P35222: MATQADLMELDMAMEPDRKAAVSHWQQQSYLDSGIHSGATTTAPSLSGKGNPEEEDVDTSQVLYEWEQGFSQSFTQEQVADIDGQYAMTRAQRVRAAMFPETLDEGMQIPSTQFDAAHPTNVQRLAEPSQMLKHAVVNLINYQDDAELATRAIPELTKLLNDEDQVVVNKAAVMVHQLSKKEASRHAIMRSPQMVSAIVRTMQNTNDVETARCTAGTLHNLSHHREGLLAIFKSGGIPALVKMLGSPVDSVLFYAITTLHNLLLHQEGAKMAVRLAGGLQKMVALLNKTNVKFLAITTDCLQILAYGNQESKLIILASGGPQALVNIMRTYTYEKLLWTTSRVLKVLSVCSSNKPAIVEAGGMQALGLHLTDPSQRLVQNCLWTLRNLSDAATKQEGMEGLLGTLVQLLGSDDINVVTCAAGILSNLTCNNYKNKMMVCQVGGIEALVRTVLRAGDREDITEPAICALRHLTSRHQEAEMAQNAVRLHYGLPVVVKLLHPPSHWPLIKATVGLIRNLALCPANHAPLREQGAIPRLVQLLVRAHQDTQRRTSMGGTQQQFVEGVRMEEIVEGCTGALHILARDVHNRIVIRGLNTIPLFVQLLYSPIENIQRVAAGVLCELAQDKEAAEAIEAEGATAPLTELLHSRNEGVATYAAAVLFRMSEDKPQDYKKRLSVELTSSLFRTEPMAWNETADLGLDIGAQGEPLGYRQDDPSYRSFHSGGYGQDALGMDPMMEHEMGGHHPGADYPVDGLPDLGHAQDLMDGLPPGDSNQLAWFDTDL
UniProt O15169: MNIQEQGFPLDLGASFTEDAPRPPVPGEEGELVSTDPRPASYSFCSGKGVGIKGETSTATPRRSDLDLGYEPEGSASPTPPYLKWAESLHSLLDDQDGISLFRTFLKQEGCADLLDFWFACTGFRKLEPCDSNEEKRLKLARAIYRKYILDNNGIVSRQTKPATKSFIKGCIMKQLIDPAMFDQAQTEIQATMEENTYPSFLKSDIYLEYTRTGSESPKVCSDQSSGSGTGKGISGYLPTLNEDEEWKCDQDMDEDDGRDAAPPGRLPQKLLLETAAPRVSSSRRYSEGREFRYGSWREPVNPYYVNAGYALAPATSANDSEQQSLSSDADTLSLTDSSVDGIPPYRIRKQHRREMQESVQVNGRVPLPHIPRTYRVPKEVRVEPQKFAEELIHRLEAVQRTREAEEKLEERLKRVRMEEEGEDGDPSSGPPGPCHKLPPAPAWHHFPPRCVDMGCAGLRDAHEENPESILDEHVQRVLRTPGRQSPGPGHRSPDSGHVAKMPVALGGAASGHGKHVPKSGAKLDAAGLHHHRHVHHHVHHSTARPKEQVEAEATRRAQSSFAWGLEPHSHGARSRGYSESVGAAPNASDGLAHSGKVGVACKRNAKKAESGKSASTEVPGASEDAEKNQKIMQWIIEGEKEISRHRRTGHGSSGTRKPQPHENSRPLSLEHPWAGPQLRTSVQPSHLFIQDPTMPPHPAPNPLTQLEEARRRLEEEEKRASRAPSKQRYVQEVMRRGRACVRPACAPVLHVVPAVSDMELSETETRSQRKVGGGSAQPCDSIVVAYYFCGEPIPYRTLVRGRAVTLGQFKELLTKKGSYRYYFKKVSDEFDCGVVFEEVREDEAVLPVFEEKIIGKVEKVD

Substance: Axin1 (from UniProt O15169 1-862)
- binding: binds

Reference: paper PMC8425213
